In patent CN114716546A one finds binding data, which are given here for 1 molecule.

Protein sequences, listed by entry. Tags and fused reporters are not part of them. Residues count along the entry.
UniProt P42227, residues 2-770: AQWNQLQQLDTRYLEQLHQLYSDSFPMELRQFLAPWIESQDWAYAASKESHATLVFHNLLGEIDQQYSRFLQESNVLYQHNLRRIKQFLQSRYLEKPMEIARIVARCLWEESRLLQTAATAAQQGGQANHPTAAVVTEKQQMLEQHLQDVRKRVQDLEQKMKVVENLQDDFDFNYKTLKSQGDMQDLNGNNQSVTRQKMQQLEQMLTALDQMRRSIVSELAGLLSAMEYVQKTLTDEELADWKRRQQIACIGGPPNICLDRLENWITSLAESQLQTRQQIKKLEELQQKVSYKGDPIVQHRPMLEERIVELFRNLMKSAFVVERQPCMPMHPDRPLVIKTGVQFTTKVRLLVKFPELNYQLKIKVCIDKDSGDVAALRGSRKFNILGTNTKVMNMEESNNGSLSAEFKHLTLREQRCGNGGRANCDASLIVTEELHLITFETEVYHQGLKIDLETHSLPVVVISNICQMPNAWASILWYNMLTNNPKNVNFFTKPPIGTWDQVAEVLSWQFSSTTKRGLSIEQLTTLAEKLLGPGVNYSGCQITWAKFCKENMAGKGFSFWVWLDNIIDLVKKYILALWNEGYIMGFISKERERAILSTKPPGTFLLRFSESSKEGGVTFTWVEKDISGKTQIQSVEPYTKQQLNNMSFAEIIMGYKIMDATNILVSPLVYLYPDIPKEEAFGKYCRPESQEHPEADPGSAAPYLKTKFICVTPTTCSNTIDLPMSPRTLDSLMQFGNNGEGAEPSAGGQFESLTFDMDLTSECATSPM

The target in test [1] is STAT3 in mouse brain tissue (mouse) (UniProt P42227). Kind of test: Western blot of mouse brain protein, nanobody as first antibody, HRP anti-His as second. A general note: In western blotting, separated proteins are transferred to a membrane and probed.
The target is the same in test [2]. Kind of test: immunohistochemistry on normal mouse brain tissue, nanobody as first antibody, HRP anti-His as second.

No constants are given. Whether binding was seen depends on the method and setting. Some results given as binding are weak or reduced against the parent protein; the word gives no strength. Sequences can lack the tags named with a protein.

B1: STAT3纳米抗体 (purified, His-tagged STAT3-VHH-10B expressed from pCold I in E. coli BL21(DE3)) (VHH, not shown: small tags and cut ends)
VHH: ESGGGLVQPGGSLRLSCAASGFTFSNYAMTWVRQAPGKGPEWVSDINMAGSMTRYADSVKGRFTISRDNAKNTLYLQMDSLKPEDTGLYYCARRNVGWDGTAGEEWDFRGQGTQVTVSS
Turning to B1, the binding result in test [1] and in test [2] was “binds” in each case.
